# In US8470548B2, “Diagnosis of depression” (Intra-Cellular Therapies, Inc., priority 2006, dated 2013):
# Tested on: p11 mRNA
# Settings: mice, 14 day treatment, once daily i.p., killed 1 hour after last injection
smiles,measurement,value
CN1C(=O)CN=C(c2ccccc2)c2cc(Cl)ccc21 [diazepam],p11 mRNA in the forebrain,not
